For at least one entry, the source does not settle the construct or the ends of the probe. For some of these results: Negatives hold for the conditions tested. For some of these results: Results from cells or extracts need not show a direct contact.

By UniProt entry, the sequences of proteins in these tests, tags left out. Chains listed by the source or under a name are the forms on record and can include a tag or linker.
UniProt P50222, whole entry Q236E: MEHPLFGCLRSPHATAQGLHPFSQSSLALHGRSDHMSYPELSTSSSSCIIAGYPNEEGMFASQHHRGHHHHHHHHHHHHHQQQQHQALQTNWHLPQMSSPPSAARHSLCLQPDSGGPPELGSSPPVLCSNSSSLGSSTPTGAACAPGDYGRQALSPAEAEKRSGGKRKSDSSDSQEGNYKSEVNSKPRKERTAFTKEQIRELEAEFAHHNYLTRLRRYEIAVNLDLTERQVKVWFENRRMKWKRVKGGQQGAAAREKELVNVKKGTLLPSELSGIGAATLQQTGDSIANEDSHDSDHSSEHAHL
UniProt P50222, other isoform, or with tags, fused parts or gaps, stated change not applied: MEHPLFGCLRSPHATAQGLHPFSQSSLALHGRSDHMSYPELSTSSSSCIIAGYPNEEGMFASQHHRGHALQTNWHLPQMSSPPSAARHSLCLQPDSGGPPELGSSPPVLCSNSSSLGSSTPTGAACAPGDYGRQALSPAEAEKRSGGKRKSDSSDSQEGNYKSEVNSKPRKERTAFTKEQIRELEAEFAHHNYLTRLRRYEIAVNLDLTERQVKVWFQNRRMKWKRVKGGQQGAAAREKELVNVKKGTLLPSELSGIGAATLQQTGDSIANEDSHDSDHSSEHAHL
UniProt P32442, whole entry Q219E: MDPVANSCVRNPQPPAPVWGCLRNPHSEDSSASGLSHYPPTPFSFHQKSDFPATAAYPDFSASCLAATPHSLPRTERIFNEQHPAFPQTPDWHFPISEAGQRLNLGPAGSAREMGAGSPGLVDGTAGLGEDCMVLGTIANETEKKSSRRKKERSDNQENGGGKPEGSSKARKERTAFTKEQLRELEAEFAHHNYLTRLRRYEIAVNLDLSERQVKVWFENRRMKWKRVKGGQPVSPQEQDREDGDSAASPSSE
UniProt P08515, whole entry: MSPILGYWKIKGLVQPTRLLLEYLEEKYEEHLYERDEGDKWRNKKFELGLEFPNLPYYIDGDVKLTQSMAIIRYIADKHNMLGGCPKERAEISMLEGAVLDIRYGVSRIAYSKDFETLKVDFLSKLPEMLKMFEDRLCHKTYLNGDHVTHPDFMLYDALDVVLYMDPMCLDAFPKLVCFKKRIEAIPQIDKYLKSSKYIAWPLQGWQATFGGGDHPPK

Results on five sequences are retold here after article PMC3243699.

Data set [1] addresses FLAG-MEOX2 (HUVEC nuclear extract) (human) (UniProt P50222). Description: competition with a labelled probe. Particulars: vs labelled A6; p16 probes: 10 mM Tris pH 7.5, 50 mM KCl, 1 mM DTT, 50 ng/ul poly(dI-dC), 5% glycerol, 0.05% NP-40, 3.5 mM MgCl2, 0.5 mM EDTA, 0.25 mg/ml BSA, 30 min room temperature; protein in an extract; residues 1-304; protein details: N-terminal FLAG; label: none (cold competitor).

Data set [2] addresses GST-MEOX2 (human) (UniProt P50222). Briefly: competition with a labelled probe. The note with it: p16 probes: 10 mM Tris pH 7.5, 50 mM KCl, 1 mM DTT, 50 ng/ul poly(dI-dC), 5% glycerol, 0.05% NP-40, 3.5 mM MgCl2, 0.5 mM EDTA, 0.25 mg/ml BSA, 30 min room temperature, recombinant protein, residues 1-304, protein details: N-terminal GST (pET-41a(+)), label: none (cold competitor).

In data set [3] the target is GST-MEOX1 (mouse) (UniProt P32442). Description: competition with a labelled probe. Particulars: vs labelled Proximal probe, protein preparation (recombinant or extract) not stated; p16 probes: 10 mM Tris pH 7.5, 50 mM KCl, 1 mM DTT, 50 ng/ul poly(dI-dC), 5% glycerol, 0.05% NP-40, 3.5 mM MgCl2, 0.5 mM EDTA, 0.25 mg/ml BSA, 30 min room temperature; recombinant protein; residues 1-253; protein details: N-terminal GST (pET-41a(+)); label: none (cold competitor).

Data set [4] has as its target FLAG-MEOX2 (HUVEC nuclear extract) (human) (UniProt P50222). Description: EMSA. Particulars: p16 probes: 10 mM Tris pH 7.5, 50 mM KCl, 1 mM DTT, 50 ng/ul poly(dI-dC), 5% glycerol, 0.05% NP-40, 3.5 mM MgCl2, 0.5 mM EDTA, 0.25 mg/ml BSA, 30 min room temperature; protein in an extract; residues 1-304; protein details: N-terminal FLAG; label: biotin end label. Background: A gel shift assay detects complexes by their altered migration in electrophoresis.

Data set [5] concerns the target GST-MEOX2 Q235E Q236E (human) (UniProt P50222). Description: EMSA. The note with it: p16 probes: 10 mM Tris pH 7.5, 50 mM KCl, 1 mM DTT, 50 ng/ul poly(dI-dC), 5% glycerol, 0.05% NP-40, 3.5 mM MgCl2, 0.5 mM EDTA, 0.25 mg/ml BSA, 30 min room temperature, recombinant protein, residues 1-304, protein details: N-terminal GST (pET-41a(+)), label: biotin end label.
Data set [6] deals with GST-MEOX1 (mouse) (UniProt P32442). Description: EMSA. The note with it: p16 probes: 10 mM Tris pH 7.5, 50 mM KCl, 1 mM DTT, 50 ng/ul poly(dI-dC), 5% glycerol, 0.05% NP-40, 3.5 mM MgCl2, 0.5 mM EDTA, 0.25 mg/ml BSA, 30 min room temperature, recombinant protein, residues 1-253, protein details: N-terminal GST (pET-41a(+)), label: biotin end label.
Data set [7] has as its target FLAG-MEOX1 (HUVEC nuclear extract) (mouse) (UniProt P32442). Description: EMSA. The note with it: p16 probes: 10 mM Tris pH 7.5, 50 mM KCl, 1 mM DTT, 50 ng/ul poly(dI-dC), 5% glycerol, 0.05% NP-40, 3.5 mM MgCl2, 0.5 mM EDTA, 0.25 mg/ml BSA, 30 min room temperature; protein in an extract; residues 1-253; protein details: N-terminal FLAG; label: biotin end label.
The target of data set [8] is GST-MEOX2 (human) (UniProt P50222). Description: EMSA. Particulars: p16 probes: 10 mM Tris pH 7.5, 50 mM KCl, 1 mM DTT, 50 ng/ul poly(dI-dC), 5% glycerol, 0.05% NP-40, 3.5 mM MgCl2, 0.5 mM EDTA, 0.25 mg/ml BSA, 30 min room temperature, recombinant protein, residues 1-304, protein details: N-terminal GST (pET-41a(+)), label: biotin end label.
Data set [9] concerns the target FLAG-MEOX2 Q235E (HUVEC nuclear extract) Q236E (human) (UniProt P50222). Briefly: EMSA. The note with it: p16 probes: 10 mM Tris pH 7.5, 50 mM KCl, 1 mM DTT, 50 ng/ul poly(dI-dC), 5% glycerol, 0.05% NP-40, 3.5 mM MgCl2, 0.5 mM EDTA, 0.25 mg/ml BSA, 30 min room temperature, protein in an extract, residues 1-304, protein details: N-terminal FLAG, label: biotin end label.

The target of data set [10] is FLAG-MEOX2 (HUVEC nuclear extract) (human) (UniProt P50222). Description: EMSA supershift. Particulars: anti-FLAG, p16 probes: 10 mM Tris pH 7.5, 50 mM KCl, 1 mM DTT, 50 ng/ul poly(dI-dC), 5% glycerol, 0.05% NP-40, 3.5 mM MgCl2, 0.5 mM EDTA, 0.25 mg/ml BSA, 30 min room temperature, protein in an extract, residues 1-304, protein details: N-terminal FLAG, label: biotin end label, unlabelled as competitor.

The target of data set [11] is FLAG-MEOX1 (HUVEC nuclear extract) (mouse) (UniProt P32442). Briefly: EMSA supershift. Particulars: anti-FLAG, p16 probes: 10 mM Tris pH 7.5, 50 mM KCl, 1 mM DTT, 50 ng/ul poly(dI-dC), 5% glycerol, 0.05% NP-40, 3.5 mM MgCl2, 0.5 mM EDTA, 0.25 mg/ml BSA, 30 min room temperature, protein in an extract, residues 1-253, protein details: N-terminal FLAG, label: biotin end label, unlabelled as competitor.

Data set [12] deals with FLAG-MEOX2 Q235E (HEK293 nuclear extract) Q236E (human) (UniProt P50222). Briefly: EMSA. The note with it: p16 probes: 10 mM Tris pH 7.5, 50 mM KCl, 1 mM DTT, 50 ng/ul poly(dI-dC), 5% glycerol, 0.05% NP-40, 3.5 mM MgCl2, 0.5 mM EDTA, 0.25 mg/ml BSA, 30 min room temperature; protein in an extract; residues 1-304; protein details: FLAG; label: biotin end label, unlabelled as competitor.

In data set [13] the target is FLAG-MEOX2 H68_Q85del (HEK293 nuclear extract) del69-86 (human) (UniProt P50222). Briefly: EMSA. The note with it: p16 probes: 10 mM Tris pH 7.5, 50 mM KCl, 1 mM DTT, 50 ng/ul poly(dI-dC), 5% glycerol, 0.05% NP-40, 3.5 mM MgCl2, 0.5 mM EDTA, 0.25 mg/ml BSA, 30 min room temperature; protein in an extract; residues 1-304; protein details: FLAG; label: biotin end label, unlabelled as competitor.

Data set [14] deals with FLAG-MEOX1 (HEK293 nuclear extract) (mouse) (UniProt P32442). Briefly: EMSA. The note with it: p16 probes: 10 mM Tris pH 7.5, 50 mM KCl, 1 mM DTT, 50 ng/ul poly(dI-dC), 5% glycerol, 0.05% NP-40, 3.5 mM MgCl2, 0.5 mM EDTA, 0.25 mg/ml BSA, 30 min room temperature; protein in an extract; residues 1-253; protein details: FLAG; label: biotin end label, unlabelled as competitor.
Data set [15] concerns the target FLAG-MEOX2 (HEK293 nuclear extract) (human) (UniProt P50222). Briefly: EMSA. The note with it: p16 probes: 10 mM Tris pH 7.5, 50 mM KCl, 1 mM DTT, 50 ng/ul poly(dI-dC), 5% glycerol, 0.05% NP-40, 3.5 mM MgCl2, 0.5 mM EDTA, 0.25 mg/ml BSA, 30 min room temperature; protein in an extract; residues 1-304; protein details: FLAG; label: biotin end label, unlabelled as competitor.

The target in data set [16] is FLAG-MEOX1 Q220E (HEK293 nuclear extract) Q219E (mouse) (UniProt P32442). Description: EMSA. The note with it: p16 probes: 10 mM Tris pH 7.5, 50 mM KCl, 1 mM DTT, 50 ng/ul poly(dI-dC), 5% glycerol, 0.05% NP-40, 3.5 mM MgCl2, 0.5 mM EDTA, 0.25 mg/ml BSA, 30 min room temperature; protein in an extract; residues 1-253; protein details: FLAG; label: biotin end label, unlabelled as competitor.

The target of another data set is GST (UniProt P08515). Description: EMSA. The note with it: p16 probes: 10 mM Tris pH 7.5, 50 mM KCl, 1 mM DTT, 50 ng/ul poly(dI-dC), 5% glycerol, 0.05% NP-40, 3.5 mM MgCl2, 0.5 mM EDTA, 0.25 mg/ml BSA, 30 min room temperature; recombinant protein; label: biotin end label, unlabelled as competitor.

Turning to “CCCCGATGGCAGTACAAGTACAGATGACACT (double strand) [MT11 (p21CIP1/WAF1 mutant)]”, the binding result (in data set [1]; with GST-MEOX2 (human) [2] (vs labelled A6)) was “no binding” in each case.

For the sequence “GCTTTTTCTTATGAGGAAAAGAAGAAGCCA (double strand) [P16MT (p16INK4a Proximal mutant)]”, the binding result with GST-MEOX1 (mouse) [3] is listed as “no binding”; with GST-MEOX2 (human) [2] (vs labelled Proximal probe, protein preparation (recombinant or extract) not stated), “no binding”.

As to “CTCCCCCGTCCGTATTAAATAAACCTCATC (double strand) [D16WT (p16INK4a Distal)]”, the binding result (in data set [4]; in [5]; with GST-MEOX1 (mouse) [6]; in data set [7]; with GST-MEOX2 (human) [8]; in data set [9]) was “no binding” each time.

For “CCCCGATGGCATTACAATTACAGATGACACT (double strand) [A6 (p21CIP1/WAF1)]”, the binding result in data set [10] is listed as “binds”; in data set [11], “binds”; in [5] (unlabelled as competitor) it was “no binding”; in data set [12], “no binding”; in [13] it was “binds”; with GST-MEOX1 (mouse) [6] (unlabelled as competitor) it was “binds”. The binding result is listed as “binds” with GST-MEOX2 (human) [8] (unlabelled as competitor); “binds” in data set [14]; “no binding” in data set [9] (unlabelled as competitor); “binds” in data set [15]; “no binding” in [16].

As for “GCTTTTTCTTATGATTAAAAGAAGAAGCCA (double strand) [P16WT (p16INK4a Proximal)]”, the binding result in data set [10] (one complex) is reported as “binds”; in data set [11] (two complexes), “binds”; in [5] (unlabelled as competitor) it was “no binding”; with GST, “no binding”; in the data set with GST-MEOX1 (mouse) [6] (unlabelled as competitor), “binds”; in the data set with GST-MEOX2 (human) [8] (unlabelled as competitor) it was “binds”. The binding result in data set [9] (unlabelled as competitor) is “no binding”.
